These are yes or no findings as the source states them, for the method shown. Binding seen in cells or lysates may run through a third protein. A result given as binding can be weak or reduced; the word gives no strength. Sequences can lack the tags named with a protein.
Target: T1, MOCS3-EGFP^1–157 fusion (human) (UniProt O95396)
T1 sequence: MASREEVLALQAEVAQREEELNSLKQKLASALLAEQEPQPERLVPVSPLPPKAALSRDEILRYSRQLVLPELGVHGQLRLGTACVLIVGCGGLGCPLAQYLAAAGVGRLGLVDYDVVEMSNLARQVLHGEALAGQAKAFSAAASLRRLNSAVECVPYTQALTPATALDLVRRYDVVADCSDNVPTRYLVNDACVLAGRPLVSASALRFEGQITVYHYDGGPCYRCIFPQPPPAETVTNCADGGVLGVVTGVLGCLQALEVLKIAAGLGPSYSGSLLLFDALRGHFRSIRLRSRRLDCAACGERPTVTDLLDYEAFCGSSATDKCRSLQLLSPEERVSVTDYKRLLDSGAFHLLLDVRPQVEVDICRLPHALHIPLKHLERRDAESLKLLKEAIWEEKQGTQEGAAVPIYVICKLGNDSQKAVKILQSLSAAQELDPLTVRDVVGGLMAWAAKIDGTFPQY
Assay: split reporter; split-EGFP complementation (EGFP 1-157 and EGFP 158-238, both fused C-terminally) in transiently cotransfected HeLa cells, fixed 12 h after transfection, confocal microscopy

NFS1-EGFP^158–238 fusion (human) (enzyme)
binding: binds

Reference: paper PMC3625234, “The L-Cysteine Desulfurase NFS1 Is Localized in the Cytosol where it Provides the Sulfur for Molybdenum Cofactor Biosynthesis in Humans” (PLoS ONE, 2013)
